Reference: doi:10.1101/2023.08.04.551977 (bioRxiv, 2023)
Construct, isoform or probe ends are uncertain for at least one entry. For part of these data: Where a protein sequence is shown, tags need not be part of it.

Legend:
AR MBR-DBD-LBD = experiment: mass measurement; settings: 56 kDa without ARE, 154 kDa with ARE (dimer)
AR DBD-hinge = biological target: T1, AR DBD-hinge (UniProt P10275); experiment: BLI; settings: residues 551-671
T1 sequence (looked up): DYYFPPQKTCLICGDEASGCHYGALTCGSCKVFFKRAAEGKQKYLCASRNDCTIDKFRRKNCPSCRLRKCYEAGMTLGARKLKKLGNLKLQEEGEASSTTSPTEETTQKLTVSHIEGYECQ

[1] = test system: T2, AR DBD-alt hinge (AR-v7 DBD); experiment: BLI
T2 sequence (looked up, limits assumed): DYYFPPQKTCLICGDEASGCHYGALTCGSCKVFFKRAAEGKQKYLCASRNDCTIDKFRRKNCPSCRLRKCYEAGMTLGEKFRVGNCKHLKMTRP

AGCTTACATAGTACGTGATGTTCTCAAGGTCGA (double strand) [C3(1)-ARE+flanking]
binding result (AR MBR-DBD-LBD): binds | Kd (AR DBD-hinge): 200 nM | Kd [1]: 710 nM
